# Measurements: patent US12358859B2, “Series of compounds for treatment of skin diseases and other conditions” (Unigen, Inc., priority 2018, dated 2025)
# The name of at least one read-out is uncertain. Some results were stated once for a whole list of compounds, not compound by compound.
# Tested on: Propionibacterium acnes (ATCC11827)
# Experiment: P-acne MIC/MBC test
# Assay type: cell-based
# Details: for MBC: lowest concentration required to kill the bacterium
# Method: The anti-microbial activity of the tested compounds were evaluated using published methods (Modugno e. al. (1994) Antimicrobial agents and Chemotherapy 38: 2362-2368; […] et. al. (1973) Antimicrobial agents and Chemotherapy 3: 40-48. Propionibacterium acnes (ATCC11827) was cultured for 20 hours at 37° C. in Reinforced Clostridal medium. The test article and positive control were dissolved in 1% DMSO with an incubation volume of 1 mL. The time of assessment was 1 day. Measurement of turbidity was used as the method of quantification. The compounds were tested in duplicate at concentrations of 250 ug/mL, 125 ug/mL, 62 ug/mL, 31 ug/mL, 16 ug/mL, 8 ug/mL, 4 ug/mL, 2 ug/mL relative to positive control ampicillin at 0.1 ug/mL.
structure (smiles),measurement,setting,value
"CC(C)=CCCC(C)/C=C/c1ccc(O)cc1 (stereo not drawn) [Compound 5, (E)-4-(3,7-dimethylocta-1,6-dienyl)phenol]",MBC,,15.6 ppm
same,MBC,listed as #5,< 3.9 ppm
same,MIC,"lowest level that inhibits growth, turbidity, 1 day",7.8 ppm
